Reference: PubChem BioAssay AID1487 (National Center for Advancing Translational Sciences (NCATS), 2009)
Some of the results follow. Further columns of the screen follow, without active or inactive calls. Most of these compounds were active or inconclusive in the main read-out, so they are no random draw. Words in brackets tell the shape of the fitted curve; partial curves, single points and poor fits give uncertain potencies.

Test: qHTS Assay for Modulators of Lamin A Splicing
Conditions: HeLa LMNA splicing GFP/RFP minigene ratio, 48 h
Procedure, shortened: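 S3 HeLa cells stably expressing lamin A-EGFP splicing minigene plus DsRed2, 600 cells/well, 48 h compound exposure at 37C. Laser-scanning cytometry; analysed as GFP (500-530 nm)/RFP (575-640 nm) total intensity ratio; 0.5% DMSO vehicle.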

[1] = measured here: GFP splicing reporter channel
[2] = measured here: RFP viability control channel

| SMILES | AC50 [1] | AC50 [2] |
| --- | --- | --- |
| O=C(N/N=C/c1cc([N+](=O)[O-])ccc1O)NC12CC3CC(CC(C3)C1)C2 | 35.5 µM [rising, single point] | 35.5 µM [rising, single point] |
| CCNc1ccc(Br)cc(C(=O)/C=C/c2c(Cl)cccc2Cl)c1=O | 35.5 µM [falling, single point] | 28.2 µM [falling, single point] |
| Cc1ccc(CSC2=NCCN2C(=O)c2ccc(S(=O)(=O)N(C)C)cc2)cc1 | 0.794 µM [rising, single point] | 1.26 µM [rising, single point] |
| O=C(NC(=S)Nc1ccc(N2CCCCC2)c(Cl)c1)c1ccc2c(c1)OCCO2 | 12.6 µM [falling, partial curve] | 11.2 µM [falling, partial curve] |
| O=C(Cn1cc(SCc2ccc(F)cc2)c2ccccc21)N1CCOCC1 |  | 25.1 µM [rising, single point] |
| Cc1cccc(Nc2nc(-c3c(C)nc4ccccn34)cs2)c1 | 35.5 µM [falling, single point] | 22.4 µM [falling, partial curve] |
| Cc1c(Br)c([N+](=O)[O-])nn1CC(=O)Nc1ccc(C(C)C)cc1 |  | 0.00891 µM [falling, full curve, poor fit] |
| CC1(C)Oc2ccc(C#N)cc2[C@@H](N2CCCC2=O)[C@@H]1O |  | 0.0355 µM [falling, full curve, poor fit] |
| Cc1nc2cc(NC(=O)N3CCCC3)ccc2n1C | 11.2 µM [rising, partial curve, poor fit] |  |
| CN(C)c1nnnn1Cc1ccccc1 |  | 25.1 µM [falling, partial curve] |
| O=C(NCCc1c[nH]c2ccccc12)C(=O)NCC1OCCN1S(=O)(=O)c1ccc(Cl)cc1 (stereo not given) |  | 14.1 µM [rising, partial curve] |
| CCOC(=O)c1[nH]c2c(c1C)C(=O)CC(c1ccc(F)cc1)C2 (stereo not given) |  | 8.91 µM [rising, partial curve] |
| CC(C)(C)c1ccc(C(=O)Nc2ccc([N+](=O)[O-])cn2)cc1 | 6.31 µM [rising, full curve, poor fit] | 14.1 µM [rising, partial curve, poor fit] |
| CCCNC(=O)OC[C@H]1O[C@H](CCO/N=C(\C)CCN2CCc3nc(-c4ccccc4)c(-c4ccccc4)cc3C2)C=C[C@@H]1Oc1ccc(OC)cc1 | 3.55 µM [rising, full curve] | 14.1 µM [rising, partial curve] |
| Cn1cc([N+](=O)[O-])c(C(=O)Nc2nccs2)n1 | 22.4 µM [falling, single point] | 2.82 µM [falling, full curve, poor fit] |
| CC(C)(C)OC(=O)N1CCC[C@H]1c1nnc(SCc2c(Cl)cccc2Cl)o1 | 22.4 µM [rising, partial curve, poor fit] | 11.2 µM [rising, partial curve, poor fit] |
| CCOC(=O)c1ccc(NC(=O)CN2C(=O)CC(c3ccc(C)c(C)c3)=Nc3ccccc32)cc1 | 0.0251 µM [falling, full curve] | 4.47 µM [falling, full curve, poor fit] |
| Cc1ccc(-c2noc(CSc3nnnn3-c3ccccc3)n2)cc1 | 17.8 µM [rising, single point] | 17.8 µM [rising, single point] |
| O=S(=O)(CC(CN1CCCC1)N1CCCC1)c1ccc2ccccc2c1 (stereo not given) | 22.4 µM [falling, partial curve, poor fit] | 2.82 µM [rising, single point] |
| CCCCC(=O)Nc1cccc(-c2cn3ccccc3n2)c1 |  | 12.6 µM [rising, partial curve] |
| Cn1c(-n2cccc2)c(-c2c(-c3ccc(F)cc3)[nH]c3c2c(=O)[nH]c(=O)n3C)c(=O)[nH]c1=O | 0.01 µM [falling, full curve, poor fit] |  |
| CC1CCCN(C(=O)Cn2c(=O)n(CC3CCC(C(=O)NC(C)C)CC3)c(=O)c3sccc32)C1 (stereo not given) | 2.82 µM [rising, partial curve, poor fit] | 0.0251 µM [rising, full curve, poor fit] |
| CN1C(=O)c2ccccc2Sc2ccc(NC(=O)COc3ccc(Cl)cc3)cc21 |  | 12.6 µM [rising, single point] |
| Cc1ccc(S(=O)(=O)Nc2cccc(-c3cn4ccsc4n3)c2)cc1 | 22.4 µM [rising, single point] | 12.6 µM [rising, partial curve] |
| CSc1ccc(-c2nnn(Cc3ccc(C)cc3)n2)cc1 |  | 31.6 µM [rising, single point] |
| CCn1c(NC(=O)Nc2ccccc2OC)nc2ccccc21 |  | 10 µM [rising, partial curve, poor fit] |
| COc1ccc(-n2c(Cc3cccn3C)nnc2SCC(=O)Nc2cc(Cl)ccc2OC)cc1 | 35.5 µM [rising, single point] | 35.5 µM [rising, single point] |

Copied from the list:
CCNc1ccc(Br)cc(C(=O)/C=C/c2c(Cl)cccc2Cl)c1=O – AC50 [2]: 28.2 µM [falling, single point]
Cc1ccc(CSC2=NCCN2C(=O)c2ccc(S(=O)(=O)N(C)C)cc2)cc1 – AC50 [1]: 0.794 µM [rising, single point]

(more compounds)

| SMILES | AC50 [1] | AC50 [2] |
| --- | --- | --- |
| Cc1ccccc1CS(=O)(=O)c1nnc([C@H](Cc2ccccc2)NC(=O)OC(C)(C)C)o1 | 35.5 µM [falling, single point] | 11.2 µM [falling, single point] |
| Cc1cc(F)ccc1S(=O)(=O)Nc1ccccc1C(=O)NCc1cccnc1 | 0.00316 µM [falling, full curve, poor fit] |  |
| N[C@@H](CCC(=O)N[C@H](CSN=O)C(=O)NCC(=O)O)C(=O)O |  | 5.62 µM [falling, partial curve, poor fit] |
| CCOC(=O)Cc1[nH]nc2c1C(c1ccsc1)C(C#N)=C(N)O2 (stereo not given) |  | 12.6 µM [falling, partial curve, poor fit] |
| CCOC(=O)c1[nH]c(C)c(C(=O)N2CCc3ccccc32)c1C | 1.12 µM [falling, full curve] | 1.26 µM [falling, full curve] |
| c1csc(-c2nnsc2-c2nc3ccccc3[nH]2)c1 | 12.6 µM [rising, single point] |  |
| Cc1[nH]n(-c2nc(-c3cccc([N+](=O)[O-])c3)cs2)c(=O)c1C | 0.0398 µM [falling, full curve, poor fit] |  |
| COc1ccc(CNc2ccnc(-c3ccc(C(=O)N(C)C)cc3)n2)c(OC)c1 | 25.1 µM [falling, partial curve, poor fit] |  |
| O=C(c1cc(-c2cccs2)on1)N1CCc2ccccc2C1 |  | 35.5 µM [rising, single point] |
| Clc1ccc2[nH]c3c(c2c1)CCc1cn[nH]c1-3 |  | 5.62 µM [rising, single point] |
| Cc1cc(NC(=O)CSc2nnnn2-c2ccc(C)c(C)c2)no1 |  | 10 µM [falling, partial curve] |
| CC(C)(C)OC(=O)N1CCC(c2c(C(=O)N3CCN(c4ncccn4)CC3)cnn2-c2ccc(F)cc2F)CC1 |  | 0.00316 µM [falling, full curve, poor fit] |
| Clc1ccc(-c2nnc(CSc3nnc(-c4cccs4)n3Cc3ccccc3)o2)cc1 |  | 3.16 µM [rising, full curve] |
| CCOc1ccc(NC(=O)CCN2CCCCC2)cc1 |  | 1.26 µM [falling, single point] |
| COc1cc(NC(=S)NC2CC(C)(C)NC(C)(C)C2)c(OC)cc1Cl |  | 35.5 µM [rising, single point] |
| O=C(CN1CCCCC1)Nc1scc2c1c(=O)oc1ccccc12 | 0.01 µM [rising, full curve, poor fit] |  |
| Cc1ccc(NC(=O)C2CC(=O)N/C(=N/NC(=O)c3ccc(C)cc3)S2)cc1 (stereo not given) |  | 22.4 µM [rising, single point] |
| C[N+](C)(C)CCCCCC[N+](C)(C)C | 0.00562 µM [falling, full curve, poor fit] | 0.00355 µM [falling, full curve, poor fit] |
| Cc1cc2oc(C(=O)Nc3c(C)n(C)n(-c4ccccc4)c3=O)c(C)c2cc1Cl | 14.1 µM [rising, partial curve, poor fit] | 14.1 µM [rising, single point] |
| O=C(O)C1Cc2ccccc2CN1S(=O)(=O)/C=C/c1ccccc1 (stereo not given) |  | 11.2 µM [rising, single point] |
| O=C(COC(=O)c1cccc(NS(=O)(=O)c2ccc(F)c(F)c2)c1)NC(=O)NC1CCCCC1 |  | 7.94 µM [rising, partial curve, poor fit] |
| CC(C)CC(=O)NC(=S)N(Cc1ccccc1)Cc1ccccc1 | 14.1 µM [rising, single point] |  |
| Cc1ccc(C(=O)Nc2nc(-c3ccccc3)c(-c3ccccc3)o2)cc1 | 35.5 µM [rising, single point] | 35.5 µM [rising, partial curve] |
| COc1ccc(C)cc1NC(=S)N1CCN(c2ccccn2)CC1 |  | 22.4 µM [rising, single point] |
| S=c1nc(-c2sccc2OCc2ccc(Cl)cc2Cl)[nH][nH]1 | 15.8 µM [falling, single point] | 20 µM [falling, partial curve, poor fit] |
| CC[N+](C)(C)Cc1ccccc1Br | 0.282 µM [falling, full curve, poor fit] | 0.0708 µM [falling, full curve, poor fit] |

Rewritten tab-delimited: 11 of the compounds above.
SMILES	AC50 [1]	AC50 [2]
c1csc(-c2nnsc2-c2nc3ccccc3[nH]2)c1	12.6 µM [rising, single point]	
Cc1[nH]n(-c2nc(-c3cccc([N+](=O)[O-])c3)cs2)c(=O)c1C	0.0398 µM [falling, full curve, poor fit]	
COc1ccc(CNc2ccnc(-c3ccc(C(=O)N(C)C)cc3)n2)c(OC)c1	25.1 µM [falling, partial curve, poor fit]	
O=C(c1cc(-c2cccs2)on1)N1CCc2ccccc2C1		35.5 µM [rising, single point]
Clc1ccc2[nH]c3c(c2c1)CCc1cn[nH]c1-3		5.62 µM [rising, single point]
Cc1cc(NC(=O)CSc2nnnn2-c2ccc(C)c(C)c2)no1		10 µM [falling, partial curve]
CC(C)(C)OC(=O)N1CCC(c2c(C(=O)N3CCN(c4ncccn4)CC3)cnn2-c2ccc(F)cc2F)CC1		0.00316 µM [falling, full curve, poor fit]
Clc1ccc(-c2nnc(CSc3nnc(-c4cccs4)n3Cc3ccccc3)o2)cc1		3.16 µM [rising, full curve]
CCOc1ccc(NC(=O)CCN2CCCCC2)cc1		1.26 µM [falling, single point]
COc1cc(NC(=S)NC2CC(C)(C)NC(C)(C)C2)c(OC)cc1Cl		35.5 µM [rising, single point]
O=C(CN1CCCCC1)Nc1scc2c1c(=O)oc1ccccc12	0.01 µM [rising, full curve, poor fit]	
